Patent publication US7384933B2, “Derivatives of 2-hydroxytetrahydrofuran and their use as medicaments” (priority 2003, dated 2008)
Some entries share one result that the patent states for a list of compounds.

What was measured:
[1] = biological target: T1, human calpain I (Homo sapiens, UniProt P07384); assay: Study of effects on human calpain I (Suc Leu Tyr-AMC fluorescence); assay type: biochemical; conditions: purified enzyme from human erythrocytes; Suc Leu Tyr-AMC substrate; one hour at 25° C.
T1 construct: purified enzyme from human erythrocytes; purchased Calbiochem 208713; host or cells: human erythrocytes (native tissue source)
T1 sequence (P07384 1-714): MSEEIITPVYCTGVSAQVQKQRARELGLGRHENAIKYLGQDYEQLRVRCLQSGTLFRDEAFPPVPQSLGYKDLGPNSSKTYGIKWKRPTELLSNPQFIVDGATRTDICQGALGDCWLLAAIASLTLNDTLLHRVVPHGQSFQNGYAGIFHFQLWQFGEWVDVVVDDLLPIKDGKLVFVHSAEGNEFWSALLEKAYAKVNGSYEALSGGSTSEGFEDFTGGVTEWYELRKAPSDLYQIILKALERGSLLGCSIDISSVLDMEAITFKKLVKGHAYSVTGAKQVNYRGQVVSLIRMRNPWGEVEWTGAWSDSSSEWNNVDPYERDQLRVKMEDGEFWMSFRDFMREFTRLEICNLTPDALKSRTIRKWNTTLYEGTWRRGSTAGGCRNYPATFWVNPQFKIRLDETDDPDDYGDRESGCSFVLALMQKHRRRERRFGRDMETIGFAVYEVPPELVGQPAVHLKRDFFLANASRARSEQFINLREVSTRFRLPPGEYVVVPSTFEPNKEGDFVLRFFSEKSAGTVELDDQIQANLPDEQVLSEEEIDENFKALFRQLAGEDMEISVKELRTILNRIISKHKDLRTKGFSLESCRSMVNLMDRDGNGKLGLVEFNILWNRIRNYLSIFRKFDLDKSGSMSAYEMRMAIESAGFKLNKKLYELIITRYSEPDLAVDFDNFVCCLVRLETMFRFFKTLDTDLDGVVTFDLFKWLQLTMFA
T1 sequence (P04632 1-268 partner): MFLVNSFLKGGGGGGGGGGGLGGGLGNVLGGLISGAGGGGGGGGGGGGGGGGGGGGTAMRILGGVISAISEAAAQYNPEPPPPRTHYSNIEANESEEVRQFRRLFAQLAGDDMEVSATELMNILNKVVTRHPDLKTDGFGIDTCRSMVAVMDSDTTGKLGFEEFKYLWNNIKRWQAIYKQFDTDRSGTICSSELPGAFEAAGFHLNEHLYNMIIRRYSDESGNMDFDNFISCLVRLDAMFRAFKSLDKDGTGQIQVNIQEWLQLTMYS

[2] = system: calpain activity in rat (C6) glial cells; assay: In situ effects on calpain activity in rat (C6) glial cells (maitotoxin, Suc-Leu-Tyr-AMC); assay type: cell-based; conditions: maitotoxin 1 nM, Suc-Leu-Tyr-AMC 100 μM
[3] = system: lipid peroxidation of rat cerebral cortex; assay: Effects on lipid peroxidation of rat cerebral cortex (MDA concentration); assay type: biochemical; conditions: rat cerebral cortex homogenate; FeCl2/EDTA/ascorbic acid; MDA quantified

SMILES	IC50 [1] [µM]	IC50 [2] [µM]	IC50 [3] [µM]
CC(C)C[C@H](NC(=O)Cc1ccc2c(c1)Nc1ccccc1S2)C(=O)N[C@@H](CC(C)C)C(=O)N[C@H]1CCOC1O (stereo partly drawn) [Example 16, N-(10H-phenothiazin-2-ylacetyl)-L-leucyl-N^1-[(3S)-2-hydroxytetrahydrofuran-3-yl]-L-leucinamide]	≤ 5	≤ 10	≤ 5
CC(C)C[C@H](NC(=O)[C@@H](NC(=O)COc1ccc2c(c1)Nc1ccccc1S2)C(C)C)C(=O)N[C@H]1CCOC1O (stereo partly drawn) [Example 43, N-[(10H-phenothiazin-2-yloxy)acetyl]-L-valyl-N^1-[(3S)-2-hydroxytetrahydrofuran-3-yl]-L-leucinamide]	≤ 5	≤ 10	≤ 5
CC(C)C[C@H](NC(=O)[C@H](CCCCNC(=O)OCc1ccccc1)NC(=O)c1ccc2c(c1)Nc1ccccc1S2)C(=O)N[C@H]1CCOC1O (stereo partly drawn) [Example 9, N 6-[(benzyloxy)carbonyl]-N^2-(10H-phenothiazin-2-ylcarbonyl)lysyl-N^1-[(3S)-2-hydroxytetrahydrofuran-3-yl]-L-leucinamide]	≤ 5	≤ 10	≤ 5
CC(C)C[C@H](NC(=O)CCc1ccc2c(c1)Nc1ccccc1S2)C(=O)N[C@@H](CC(C)C)C(=O)N[C@H]1CCOC1O (stereo partly drawn) [Example 20, N-[3-(10H-phenothiazin-2-yl)propanoyl]-L-leucyl-N^1-[(3S)-2-hydroxytetrahydrofuran-3-yl]-L-leucinamide]	≤ 5	≤ 10	≤ 5
CC(C)C[C@H](NC(=O)COc1ccc2c(c1)Nc1ccccc1S2)C(=O)N[C@@H](CC(C)C)C(=O)N[C@H]1CCOC1O (stereo partly drawn) [Example 40, N-[(10H-phenothiazin-2-yloxy)acetyl]-L-leucyl-N^1-[(3S)-2-hydroxytetrahydrofuran-3-yl]-L-leucinamide]	≤ 5	≤ 10	≤ 5
CC(C)C[C@H](NC(=O)c1ccc2c(c1)Nc1ccccc1S2)C(=O)N[C@@H](CC(C)C)C(=O)N[C@H]1CCOC1O (stereo partly drawn) [Example 8, N-(10H-phenothiazin-2-ylcarbonyl)leucyl-N^1-[(3S)-2-hydroxytetrahydrofuran-3-yl]-L-leucinamide]	≤ 5	≤ 10	≤ 5
